Test results published in PMC3029307.
These are yes or no findings as the source states them, for the method shown. Some binding calls cover weakened binding; strength is not graded here.

How the values were obtained:
Details in all cases: remark: other sources report otherwise
[1] = target: T1, Apaf-1 (endogenous, GM701 cytosol) (human (endogenous in GM701)), O14727; experiment: SEC; data not shown: gel filtration of cytosols stored at 4°C, with CC or CC/dATP
T1 chain: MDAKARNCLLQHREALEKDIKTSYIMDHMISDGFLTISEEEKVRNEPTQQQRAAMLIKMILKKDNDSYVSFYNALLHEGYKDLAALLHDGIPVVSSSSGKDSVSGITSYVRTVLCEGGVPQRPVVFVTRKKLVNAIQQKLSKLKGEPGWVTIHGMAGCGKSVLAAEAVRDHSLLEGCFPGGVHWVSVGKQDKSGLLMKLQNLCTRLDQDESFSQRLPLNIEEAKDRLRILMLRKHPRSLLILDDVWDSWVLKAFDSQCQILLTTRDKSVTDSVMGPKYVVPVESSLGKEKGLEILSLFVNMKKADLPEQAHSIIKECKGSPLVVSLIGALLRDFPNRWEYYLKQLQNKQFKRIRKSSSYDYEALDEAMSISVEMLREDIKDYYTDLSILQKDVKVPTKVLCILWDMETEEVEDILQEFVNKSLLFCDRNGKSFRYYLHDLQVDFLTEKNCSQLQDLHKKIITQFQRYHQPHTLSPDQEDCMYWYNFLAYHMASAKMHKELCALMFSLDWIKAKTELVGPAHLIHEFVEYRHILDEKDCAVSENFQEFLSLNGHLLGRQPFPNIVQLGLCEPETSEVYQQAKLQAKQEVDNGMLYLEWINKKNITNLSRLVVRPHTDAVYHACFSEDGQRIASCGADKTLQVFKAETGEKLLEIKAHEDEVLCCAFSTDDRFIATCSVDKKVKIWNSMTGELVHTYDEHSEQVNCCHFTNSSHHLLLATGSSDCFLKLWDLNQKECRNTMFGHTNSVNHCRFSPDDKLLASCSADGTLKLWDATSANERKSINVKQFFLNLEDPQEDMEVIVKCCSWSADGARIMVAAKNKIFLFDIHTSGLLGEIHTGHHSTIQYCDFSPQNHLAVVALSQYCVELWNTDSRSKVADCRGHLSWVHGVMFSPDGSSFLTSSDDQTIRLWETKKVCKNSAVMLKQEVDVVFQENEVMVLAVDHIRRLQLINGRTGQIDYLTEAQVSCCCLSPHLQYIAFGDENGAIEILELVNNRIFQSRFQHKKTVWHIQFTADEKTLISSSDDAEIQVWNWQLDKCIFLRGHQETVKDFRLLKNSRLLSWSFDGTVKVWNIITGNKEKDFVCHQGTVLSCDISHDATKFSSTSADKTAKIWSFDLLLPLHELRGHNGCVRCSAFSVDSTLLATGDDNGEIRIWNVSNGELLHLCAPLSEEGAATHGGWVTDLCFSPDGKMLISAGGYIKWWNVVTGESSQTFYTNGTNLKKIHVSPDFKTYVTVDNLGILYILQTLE

[2] = target: T1, Apaf-1 (endogenous, GM701 cytosol) …; experiment: SEC; data not shown: gel filtration of cytosols stored at -80°C for 3 months, with CC with or without dATP
[3] = target: T1, Apaf-1 (endogenous, GM701 cytosol) …; experiment: SEC; GM701 cytosol stored at -20°C for 15 days, incubated with CC with or without dATP, fractionated on Superose 6; fractions analysed by Western blotting
[4] = target: T1, Apaf-1 (endogenous, GM701 cytosol) …; experiment: SEC; fresh GM701 cytosol incubated with bovine CC, fractionated on Superose 6 (20 mM HEPES, 0.1% CHAPS, 5 mM DTT, 5% sucrose pH 7.0, 50 mM NaCl); fractions analysed by Western blotting

Measured: binding

B1: Apaf-1 (endogenous, GM701 cytosol), O14727 1-1248 (protein)
chain: T1 chain
binds: all assays above
